This is one part of the list.
compound: CC1Cc2ccccc2N1C(=O)C1CCCN(C1)C(=O)CCl (mixture of isomers) [TRIM25 ligand 11 (diastereomer mixture)]; experiment: probe-labelled cysteine peptide fold change vs DMSO (competition) (log2 fold change); higher = less target engagement (more negative = stronger competition); settings: 10 µM; THP-1; incubation time: 4 h
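Also: competitive chemoproteomic profiling in live THP-1 cells with an iodoacetamide desthiobiotin (IA-DTB) probe, comparing probe-labelled peptide intensities in compound-treated cells against DMSO-treated controls.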

Amino acid sequences for entries named in this document (tags omitted). A change or cut given only in a name is not applied to a line headed by its entry.
UniProt Q9H7D7: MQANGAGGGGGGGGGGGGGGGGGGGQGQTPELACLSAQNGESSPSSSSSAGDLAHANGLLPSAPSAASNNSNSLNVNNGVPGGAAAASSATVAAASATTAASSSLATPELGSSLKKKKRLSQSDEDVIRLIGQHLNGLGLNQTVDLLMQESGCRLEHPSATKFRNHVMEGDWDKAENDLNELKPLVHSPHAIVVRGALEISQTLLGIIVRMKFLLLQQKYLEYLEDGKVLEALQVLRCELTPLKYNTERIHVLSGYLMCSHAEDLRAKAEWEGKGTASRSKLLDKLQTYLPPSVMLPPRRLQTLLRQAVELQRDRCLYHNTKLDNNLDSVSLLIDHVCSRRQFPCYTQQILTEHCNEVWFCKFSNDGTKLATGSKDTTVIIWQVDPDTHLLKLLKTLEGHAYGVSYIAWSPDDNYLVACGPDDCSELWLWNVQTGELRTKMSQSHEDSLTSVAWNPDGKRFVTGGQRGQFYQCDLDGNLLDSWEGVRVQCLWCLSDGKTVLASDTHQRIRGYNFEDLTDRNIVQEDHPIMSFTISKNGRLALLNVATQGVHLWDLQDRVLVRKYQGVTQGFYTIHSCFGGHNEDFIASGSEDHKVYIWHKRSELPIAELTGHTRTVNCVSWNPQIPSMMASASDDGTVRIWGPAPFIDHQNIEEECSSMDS
UniProt Q01831: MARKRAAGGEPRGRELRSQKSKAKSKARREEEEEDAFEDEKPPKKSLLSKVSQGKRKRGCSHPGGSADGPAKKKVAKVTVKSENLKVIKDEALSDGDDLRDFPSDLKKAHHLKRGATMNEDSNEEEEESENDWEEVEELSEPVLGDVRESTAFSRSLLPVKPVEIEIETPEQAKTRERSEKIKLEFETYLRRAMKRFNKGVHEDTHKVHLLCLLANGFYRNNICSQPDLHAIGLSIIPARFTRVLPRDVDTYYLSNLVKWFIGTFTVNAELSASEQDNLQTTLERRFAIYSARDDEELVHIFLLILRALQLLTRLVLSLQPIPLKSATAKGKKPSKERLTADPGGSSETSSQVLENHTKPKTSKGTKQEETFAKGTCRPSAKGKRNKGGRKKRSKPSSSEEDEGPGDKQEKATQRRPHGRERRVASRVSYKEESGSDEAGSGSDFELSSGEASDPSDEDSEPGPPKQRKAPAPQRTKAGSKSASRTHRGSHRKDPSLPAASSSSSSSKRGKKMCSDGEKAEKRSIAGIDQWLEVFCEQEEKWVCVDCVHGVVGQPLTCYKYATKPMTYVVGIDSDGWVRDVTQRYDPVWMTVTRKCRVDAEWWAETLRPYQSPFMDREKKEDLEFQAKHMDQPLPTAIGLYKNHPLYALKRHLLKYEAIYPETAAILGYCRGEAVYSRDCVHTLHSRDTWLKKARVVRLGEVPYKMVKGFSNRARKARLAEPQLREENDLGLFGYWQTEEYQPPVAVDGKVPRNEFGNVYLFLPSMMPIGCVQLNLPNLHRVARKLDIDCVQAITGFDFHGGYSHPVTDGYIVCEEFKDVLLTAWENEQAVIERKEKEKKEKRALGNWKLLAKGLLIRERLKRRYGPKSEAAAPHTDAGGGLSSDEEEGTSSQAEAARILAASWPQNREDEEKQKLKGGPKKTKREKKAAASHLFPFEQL
UniProt Q9NW82: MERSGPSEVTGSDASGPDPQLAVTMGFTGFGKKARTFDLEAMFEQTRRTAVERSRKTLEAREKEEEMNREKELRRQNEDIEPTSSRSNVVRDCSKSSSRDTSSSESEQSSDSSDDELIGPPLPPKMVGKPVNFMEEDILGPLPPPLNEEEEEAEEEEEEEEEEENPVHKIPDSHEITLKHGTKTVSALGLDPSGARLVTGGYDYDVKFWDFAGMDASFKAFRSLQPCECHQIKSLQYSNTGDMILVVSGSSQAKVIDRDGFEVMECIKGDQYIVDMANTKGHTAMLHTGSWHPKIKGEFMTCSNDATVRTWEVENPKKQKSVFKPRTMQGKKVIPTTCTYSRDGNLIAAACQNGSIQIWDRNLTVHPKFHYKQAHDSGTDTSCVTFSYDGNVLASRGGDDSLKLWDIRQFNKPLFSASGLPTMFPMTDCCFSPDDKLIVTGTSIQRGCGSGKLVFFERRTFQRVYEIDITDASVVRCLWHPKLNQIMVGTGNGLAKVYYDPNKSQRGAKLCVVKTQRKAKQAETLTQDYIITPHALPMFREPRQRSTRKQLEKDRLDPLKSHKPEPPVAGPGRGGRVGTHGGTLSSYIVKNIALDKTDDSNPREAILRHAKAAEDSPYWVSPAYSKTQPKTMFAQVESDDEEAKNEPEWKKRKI
UniProt O75554: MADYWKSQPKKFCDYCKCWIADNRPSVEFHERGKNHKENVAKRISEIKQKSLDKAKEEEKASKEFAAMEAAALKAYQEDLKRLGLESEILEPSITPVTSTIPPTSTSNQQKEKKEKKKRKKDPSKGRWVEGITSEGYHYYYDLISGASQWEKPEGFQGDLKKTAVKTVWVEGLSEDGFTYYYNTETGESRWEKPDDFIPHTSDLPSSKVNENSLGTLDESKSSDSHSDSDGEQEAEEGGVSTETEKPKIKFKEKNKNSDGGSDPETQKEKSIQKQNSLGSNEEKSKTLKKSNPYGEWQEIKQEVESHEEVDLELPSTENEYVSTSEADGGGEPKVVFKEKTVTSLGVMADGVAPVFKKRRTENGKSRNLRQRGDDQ
UniProt Q562E7: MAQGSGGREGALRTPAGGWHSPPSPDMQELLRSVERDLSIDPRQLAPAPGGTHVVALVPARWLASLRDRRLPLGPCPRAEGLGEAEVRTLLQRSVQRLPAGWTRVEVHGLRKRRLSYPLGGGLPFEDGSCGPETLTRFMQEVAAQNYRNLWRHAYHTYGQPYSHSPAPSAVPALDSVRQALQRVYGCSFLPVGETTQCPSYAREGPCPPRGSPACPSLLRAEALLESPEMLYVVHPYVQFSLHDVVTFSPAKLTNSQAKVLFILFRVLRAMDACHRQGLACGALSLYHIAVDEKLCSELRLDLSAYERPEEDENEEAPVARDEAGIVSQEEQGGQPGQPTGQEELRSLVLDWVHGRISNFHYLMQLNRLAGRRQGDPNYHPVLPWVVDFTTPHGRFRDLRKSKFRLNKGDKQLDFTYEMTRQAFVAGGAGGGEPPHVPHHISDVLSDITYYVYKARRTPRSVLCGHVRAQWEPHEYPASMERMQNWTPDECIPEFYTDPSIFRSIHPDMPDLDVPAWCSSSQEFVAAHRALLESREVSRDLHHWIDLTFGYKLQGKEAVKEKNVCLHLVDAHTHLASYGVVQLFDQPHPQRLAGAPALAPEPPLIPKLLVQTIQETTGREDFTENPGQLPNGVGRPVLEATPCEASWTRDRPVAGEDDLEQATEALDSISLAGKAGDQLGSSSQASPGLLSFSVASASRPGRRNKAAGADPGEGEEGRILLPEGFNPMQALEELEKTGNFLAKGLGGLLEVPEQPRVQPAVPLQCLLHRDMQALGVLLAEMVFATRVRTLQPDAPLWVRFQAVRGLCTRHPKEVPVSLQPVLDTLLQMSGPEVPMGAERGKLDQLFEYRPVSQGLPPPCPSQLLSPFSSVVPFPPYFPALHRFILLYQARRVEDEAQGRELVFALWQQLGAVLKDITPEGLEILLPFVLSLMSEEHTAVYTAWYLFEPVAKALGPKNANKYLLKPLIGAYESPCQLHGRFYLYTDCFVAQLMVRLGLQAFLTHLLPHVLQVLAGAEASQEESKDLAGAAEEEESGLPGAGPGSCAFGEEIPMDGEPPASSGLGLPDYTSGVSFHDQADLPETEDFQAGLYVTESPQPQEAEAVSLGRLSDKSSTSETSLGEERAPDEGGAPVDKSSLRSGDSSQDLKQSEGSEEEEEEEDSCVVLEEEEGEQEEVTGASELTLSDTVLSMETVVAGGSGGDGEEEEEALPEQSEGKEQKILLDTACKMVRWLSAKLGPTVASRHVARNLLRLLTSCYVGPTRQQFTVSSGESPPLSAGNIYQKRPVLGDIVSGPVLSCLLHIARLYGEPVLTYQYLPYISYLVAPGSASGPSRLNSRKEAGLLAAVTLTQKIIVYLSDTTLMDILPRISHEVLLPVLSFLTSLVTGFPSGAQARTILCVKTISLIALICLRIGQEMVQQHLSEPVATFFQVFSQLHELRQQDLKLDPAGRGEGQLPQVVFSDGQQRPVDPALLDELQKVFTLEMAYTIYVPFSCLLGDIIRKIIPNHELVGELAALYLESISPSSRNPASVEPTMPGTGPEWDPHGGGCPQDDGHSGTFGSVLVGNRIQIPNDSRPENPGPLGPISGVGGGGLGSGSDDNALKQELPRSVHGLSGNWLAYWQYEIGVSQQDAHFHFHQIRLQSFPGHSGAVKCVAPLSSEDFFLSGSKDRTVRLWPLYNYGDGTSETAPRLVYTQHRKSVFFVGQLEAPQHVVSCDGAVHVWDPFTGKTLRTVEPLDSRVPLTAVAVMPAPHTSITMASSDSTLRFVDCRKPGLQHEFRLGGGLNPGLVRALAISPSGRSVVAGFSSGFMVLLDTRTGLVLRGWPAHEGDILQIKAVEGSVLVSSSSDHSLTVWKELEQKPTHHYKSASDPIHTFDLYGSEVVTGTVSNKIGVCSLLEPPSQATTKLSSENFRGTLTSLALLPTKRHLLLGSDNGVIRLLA
UniProt Q15061: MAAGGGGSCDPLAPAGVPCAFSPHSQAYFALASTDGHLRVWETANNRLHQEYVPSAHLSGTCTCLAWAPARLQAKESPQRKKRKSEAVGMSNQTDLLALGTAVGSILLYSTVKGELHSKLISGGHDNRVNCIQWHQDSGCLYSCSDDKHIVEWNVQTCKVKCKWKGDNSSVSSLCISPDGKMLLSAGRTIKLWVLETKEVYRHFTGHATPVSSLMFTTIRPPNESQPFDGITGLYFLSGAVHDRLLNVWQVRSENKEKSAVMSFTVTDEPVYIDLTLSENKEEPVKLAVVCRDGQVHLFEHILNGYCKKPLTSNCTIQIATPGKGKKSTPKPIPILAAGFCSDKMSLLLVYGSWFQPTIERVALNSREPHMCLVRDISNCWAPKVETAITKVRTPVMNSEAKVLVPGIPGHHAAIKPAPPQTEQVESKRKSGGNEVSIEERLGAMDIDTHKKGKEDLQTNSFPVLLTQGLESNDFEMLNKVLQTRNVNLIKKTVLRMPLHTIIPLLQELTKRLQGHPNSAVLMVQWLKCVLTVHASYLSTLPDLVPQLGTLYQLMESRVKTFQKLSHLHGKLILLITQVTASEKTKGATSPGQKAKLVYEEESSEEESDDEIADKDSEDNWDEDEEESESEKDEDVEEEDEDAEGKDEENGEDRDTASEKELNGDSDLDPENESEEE
UniProt Q8IWB7: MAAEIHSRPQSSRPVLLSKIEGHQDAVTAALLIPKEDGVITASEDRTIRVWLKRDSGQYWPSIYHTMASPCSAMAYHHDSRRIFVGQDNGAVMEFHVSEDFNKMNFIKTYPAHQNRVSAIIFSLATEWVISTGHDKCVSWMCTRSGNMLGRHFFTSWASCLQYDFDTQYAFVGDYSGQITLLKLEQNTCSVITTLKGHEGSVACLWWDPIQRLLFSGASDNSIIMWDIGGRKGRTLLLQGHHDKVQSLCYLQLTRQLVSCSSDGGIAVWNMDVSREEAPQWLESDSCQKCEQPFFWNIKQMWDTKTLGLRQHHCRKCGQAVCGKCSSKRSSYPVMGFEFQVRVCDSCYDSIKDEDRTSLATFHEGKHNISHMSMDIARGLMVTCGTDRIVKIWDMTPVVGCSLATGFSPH
UniProt Q9BQA1, whole entry, looked up: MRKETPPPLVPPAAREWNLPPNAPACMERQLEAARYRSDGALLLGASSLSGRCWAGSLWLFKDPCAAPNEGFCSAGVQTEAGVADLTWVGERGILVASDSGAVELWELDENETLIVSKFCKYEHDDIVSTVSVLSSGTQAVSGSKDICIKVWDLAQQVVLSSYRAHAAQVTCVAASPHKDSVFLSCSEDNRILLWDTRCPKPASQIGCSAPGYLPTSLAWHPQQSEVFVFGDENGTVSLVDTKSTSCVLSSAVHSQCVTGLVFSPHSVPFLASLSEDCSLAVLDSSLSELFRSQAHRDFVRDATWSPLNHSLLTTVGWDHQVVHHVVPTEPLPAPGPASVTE
UniProt Q9BUR4: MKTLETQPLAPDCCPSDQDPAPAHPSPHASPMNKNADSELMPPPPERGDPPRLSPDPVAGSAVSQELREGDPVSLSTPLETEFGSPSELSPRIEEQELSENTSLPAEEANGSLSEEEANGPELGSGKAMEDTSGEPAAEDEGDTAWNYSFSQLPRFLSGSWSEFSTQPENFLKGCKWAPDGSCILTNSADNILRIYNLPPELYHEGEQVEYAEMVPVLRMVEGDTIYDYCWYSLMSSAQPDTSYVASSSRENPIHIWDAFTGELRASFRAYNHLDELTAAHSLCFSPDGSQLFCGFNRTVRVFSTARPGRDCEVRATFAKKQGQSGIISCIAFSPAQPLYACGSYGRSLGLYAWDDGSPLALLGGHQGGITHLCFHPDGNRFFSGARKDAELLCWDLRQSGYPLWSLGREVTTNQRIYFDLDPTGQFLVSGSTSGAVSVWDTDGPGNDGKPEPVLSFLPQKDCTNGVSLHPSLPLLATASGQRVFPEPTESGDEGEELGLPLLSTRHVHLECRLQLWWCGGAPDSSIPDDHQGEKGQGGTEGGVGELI

Target | probe-labelled cysteine peptide fold change
XPNPEP1_Q9NQW7_316_CCMPYTPICIAK (UniProt Q9NQW7) | 0.0278
WDR59_Q6PJI9_654_VIIQDIACLLPVHK (UniProt Q6PJI9) | 0.0591
WDR12_Q9GZL7_97_YTAPQPEQCMFHDDWISSIK (UniProt Q9GZL7) | 0.171
WTAP_Q15007_90_EQEMQECTTQIQYLK (UniProt Q15007) | -0.25
WDR74_Q6RFH5_83_HCPGGEGMFR (UniProt Q6RFH5) | 0.0657
WRN_Q14191_197_CSNWSK (UniProt Q14191) | 0.0253
WDR62_O43379_539_VEAHDAEVLCLEYSKPETGLTLLASASR (UniProt O43379) | 0.0174
XAF1_Q6GPH4_105_LELHESYCGSR (UniProt Q6GPH4) | 0.214
WDR26_Q9H7D7_153_LIGQHLNGLGLNQTVDLLMQESGCR (UniProt Q9H7D7) | -0.116
WDR59_Q6PJI9_677_SLGELYILNVNDIQETCQK (UniProt Q6PJI9) | 0.0212
XPC_Q01831_536_SIAGIDQWLEVFCEQEEK (UniProt Q01831) | -0.0149
WEE1_P30291_323_RLDGCIYAIK (UniProt P30291) | -0.0487
WDR37_Q9Y2I8_329_TANLYDVETSELVHSLTGHDQELTHCCTHPTQR (UniProt Q9Y2I8) | 0.0866
WDR91_A4D1P6_704_VLESCLSLGGHR (UniProt A4D1P6) | 0.135
WDR37_Q9Y2I8_417_INVCVGQK (UniProt Q9Y2I8) | -0.0568
WDR70_Q9NW82_338_KVIPTTCTYSR (UniProt Q9NW82) | -0.0141
WDFY3_Q8IZQ1_3027_EPVGQIVCTDK (UniProt Q8IZQ1) | 0.0645
WDR62_O43379_599_DIQMISCGADK (UniProt O43379) | -0.297
WBP4_O75554_13_KFCDYCK (UniProt O75554) | -0.152
WDR6_Q9NNW5_830_LACHVMHLSSHR (UniProt Q9NNW5) | 0.0252

Target | probe-labelled cysteine peptide fold change
WDR11_Q9BZH6_473_MCPPLTTK (UniProt Q9BZH6) | 0.0855
WDR1_O75083_507_GPVTDVAYSHDGAFLAVCDASK (UniProt O75083) | 0.0917
WDR12_Q9GZL7_205_FCSGSWDK (UniProt Q9GZL7) | -0.0737
WDR59_Q6PJI9_888_FVSCPPDPHK (UniProt Q6PJI9) | 0.0371
WDR81_Q562E7_215_GSPACPSLLR (UniProt Q562E7) | -0.15
WDR53_Q7Z5U6_99_DSLDHFHVNEEEINCLSLNQTENLLASADDSGAIK (UniProt Q7Z5U6) | 0.0638
WDR62_O43379_826_CLLTNGK (UniProt O43379) | -0.102
WIPI2_Q9Y4P8_430_LAYTDDLGAVGGACLEDEASALRLDEDSEHPPMILR (UniProt Q9Y4P8) | -0.0733
WDR46_O15213_271_WLHIYDNQGIELHCIR (UniProt O15213) | 0.114
WDR3_Q9UNX4_44_YVAVPACEHVFIWDLR (UniProt Q9UNX4) | 0.264
WDR59_Q6PJI9_26_DSQATAMSVDCLGQHAVLSGR (UniProt Q6PJI9) | 0.188
XPC_Q01831_224_NNICSQPDLHAIGLSIIPAR (UniProt Q01831) | -0.0894
WDR43_Q15061_291_LAVVCR (UniProt Q15061) | -0.051
WDR1_O75083_170_LATGSDDNCAAFFEGPPFK (UniProt O75083) | 0.156
WDFY1_Q8IWB7_287_EEAPQWLESDSCQK (UniProt Q8IWB7) | 0.277
WDR77_Q9BQA1_26_EWNLPPNAPACMER (UniProt Q9BQA1) | -0.108
WRAP53_Q9BUR4_519_LQLWWCGGAPDSSIPDDHQGEK (UniProt Q9BUR4) | 0.0556
WDR59_Q6PJI9_233_YLNILPCQVPVWK (UniProt Q6PJI9) | -0.0454
WNK3_Q9BYP7_278_CDNIFITGPTGSVK (UniProt Q9BYP7) | -0.0413
WARS2_Q9UGM6_102_QSILDMTAVLLACGINPEK (UniProt Q9UGM6) | 0.474

same assay, conditions: 50 µM; THP-1; incubation time: 4 h

Target | probe-labelled cysteine peptide fold change
XPNPEP1_Q9NQW7_316_CCMPYTPICIAK (UniProt Q9NQW7) | 0.114
WDR59_Q6PJI9_654_VIIQDIACLLPVHK (UniProt Q6PJI9) | -0.0345
WDR12_Q9GZL7_97_YTAPQPEQCMFHDDWISSIK (UniProt Q9GZL7) | -0.00138
WTAP_Q15007_90_EQEMQECTTQIQYLK (UniProt Q15007) | -0.161
WDR74_Q6RFH5_83_HCPGGEGMFR (UniProt Q6RFH5) | -0.0427
WRN_Q14191_197_CSNWSK (UniProt Q14191) | -0.223
WDR62_O43379_539_VEAHDAEVLCLEYSKPETGLTLLASASR (UniProt O43379) | -0.205
XAF1_Q6GPH4_105_LELHESYCGSR (UniProt Q6GPH4) | -0.0316
WDR26_Q9H7D7_153_LIGQHLNGLGLNQTVDLLMQESGCR (UniProt Q9H7D7) | -0.185
WDR59_Q6PJI9_677_SLGELYILNVNDIQETCQK (UniProt Q6PJI9) | 0.159
XPC_Q01831_536_SIAGIDQWLEVFCEQEEK (UniProt Q01831) | 0.206
WEE1_P30291_323_RLDGCIYAIK (UniProt P30291) | 0.00393
WDR37_Q9Y2I8_329_TANLYDVETSELVHSLTGHDQELTHCCTHPTQR (UniProt Q9Y2I8) | -0.193
WDR91_A4D1P6_704_VLESCLSLGGHR (UniProt A4D1P6) | 0.0594
WDR37_Q9Y2I8_417_INVCVGQK (UniProt Q9Y2I8) | -0.0133
WDR70_Q9NW82_338_KVIPTTCTYSR (UniProt Q9NW82) | 0.375
WDFY3_Q8IZQ1_3027_EPVGQIVCTDK (UniProt Q8IZQ1) | 0.00839
WDR62_O43379_599_DIQMISCGADK (UniProt O43379) | 0.0627
WBP4_O75554_13_KFCDYCK (UniProt O75554) | -0.3
WDR6_Q9NNW5_830_LACHVMHLSSHR (UniProt Q9NNW5) | 0.296

Target | probe-labelled cysteine peptide fold change
WDR11_Q9BZH6_473_MCPPLTTK (UniProt Q9BZH6) | 0.0522
WDR1_O75083_507_GPVTDVAYSHDGAFLAVCDASK (UniProt O75083) | 0.0234
WDR12_Q9GZL7_205_FCSGSWDK (UniProt Q9GZL7) | -0.0151
WDR59_Q6PJI9_888_FVSCPPDPHK (UniProt Q6PJI9) | 0.194
WDR81_Q562E7_215_GSPACPSLLR (UniProt Q562E7) | -0.158
WDR53_Q7Z5U6_99_DSLDHFHVNEEEINCLSLNQTENLLASADDSGAIK (UniProt Q7Z5U6) | -0.245
WDR62_O43379_826_CLLTNGK (UniProt O43379) | -0.173
WIPI2_Q9Y4P8_430_LAYTDDLGAVGGACLEDEASALRLDEDSEHPPMILR (UniProt Q9Y4P8) | -0.242
WDR46_O15213_271_WLHIYDNQGIELHCIR (UniProt O15213) | 0.223
WDR3_Q9UNX4_44_YVAVPACEHVFIWDLR (UniProt Q9UNX4) | 0.237
WDR59_Q6PJI9_26_DSQATAMSVDCLGQHAVLSGR (UniProt Q6PJI9) | 0.121
XPC_Q01831_224_NNICSQPDLHAIGLSIIPAR (UniProt Q01831) | 0.0467
WDR43_Q15061_291_LAVVCR (UniProt Q15061) | 0.0308
WDR1_O75083_170_LATGSDDNCAAFFEGPPFK (UniProt O75083) | 0.139
WDFY1_Q8IWB7_287_EEAPQWLESDSCQK (UniProt Q8IWB7) | 0.13
WDR77_Q9BQA1_26_EWNLPPNAPACMER (UniProt Q9BQA1) | -0.0635
WRAP53_Q9BUR4_519_LQLWWCGGAPDSSIPDDHQGEK (UniProt Q9BUR4) | 0.0478
WDR59_Q6PJI9_233_YLNILPCQVPVWK (UniProt Q6PJI9) | 0.137
WNK3_Q9BYP7_278_CDNIFITGPTGSVK (UniProt Q9BYP7) | -0.0265
WARS2_Q9UGM6_102_QSILDMTAVLLACGINPEK (UniProt Q9UGM6) | 0.305

From the supplement of paper PMC12067093, “Discovery and optimisation of a covalent ligand for TRIM25 and its application to targeted protein ubiquitination” (Chemical Science, 2025)
